PubChem BioAssay AID652259, Drosophila RNAi Screening Center, 2013
In all, the deposit lists about 22,000 reagents; this is a random part of those that have a named target and a result. Of all reagents, 233 (1.1%) were called active. 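Light values are raw, unnormalised plate reads; the ratio scores behind the reporter calls were not deposited.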 A plus sign joins genes that one reagent is predicted to hit. Not given: the amount of reagent, the time to read-out, the dose of the treatment.

- Screen: 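Knock-downs that push a Wingless-driven reporter up or down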 (primary screen)
- Cells: Drosophila clone 8 imaginal disc epithelial cells
- Reagents: long dsRNA against Drosophila genes
- Conditions: pathway stimulated by co-transfected Wingless expression plasmid
- Measurement: 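Dual luciferase reads per well after Wingless plasmid stimulation: reporter firefly light and Renilla control light; activity is firefly divided by Renilla, a ratio not deposited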
- Scale: firefly reporter light: higher = more Wg reporter light, before normalisation; Renilla control light: higher = more transfected or surviving cells
- Hit rule: 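a knock-down is a candidate when at least two out of four statistical tests show it departing from its plate mean; one test alone signals a weak candidate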
- Calls: active = candidate regulator (raises or lowers reporter); inactive = not a candidate

NUCB1 [DRSC22137]: firefly reporter light, replicate 1 = 5.08e5; firefly reporter light, replicate 2 = 5.34e5; Renilla control light, replicate 1 = 2.09e5; Renilla control light, replicate 2 = 1.93e5; outcome = inactive
kuz [DRSC03555]: firefly reporter light, replicate 1 = 5457; firefly reporter light, replicate 2 = 5666; Renilla control light, replicate 1 = 1008; Renilla control light, replicate 2 = 2017; outcome = inactive
CG10366 [DRSC02046]: firefly reporter light, replicate 1 = 12229; Renilla control light, replicate 1 = 2432; outcome = inactive
CG30099 [DRSC07039]: firefly reporter light, replicate 1 = 6288; Renilla control light, replicate 1 = 2957; outcome = inactive
Art4 [DRSC15779]: firefly reporter light, replicate 1 = 13657; Renilla control light, replicate 1 = 3627; outcome = inactive
His4r [DRSC16703]: firefly reporter light, replicate 1 = 11319; Renilla control light, replicate 1 = 423; outcome = inactive
CG14570 [DRSC11731]: firefly reporter light, replicate 1 = 19907; Renilla control light, replicate 1 = 5660; outcome = inactive
CG42288 [DRSC06381]: firefly reporter light, replicate 1 = 6091; Renilla control light, replicate 1 = 1764; outcome = inactive
inaF-B [DRSC18903]: firefly reporter light, replicate 1 = 2247; Renilla control light, replicate 1 = 855; outcome = inactive
CG30278 [DRSC22787]: firefly reporter light, replicate 1 = 5.48e5; firefly reporter light, replicate 2 = 6.27e5; Renilla control light, replicate 1 = 2.22e5; Renilla control light, replicate 2 = 2.40e5; outcome = inactive
FucT6 [DRSC19848]: firefly reporter light, replicate 1 = 1922; firefly reporter light, replicate 2 = 5944; Renilla control light, replicate 1 = 739; Renilla control light, replicate 2 = 2282; outcome = inactive
nvd [DRSC22139]: firefly reporter light, replicate 1 = 7.16e5; firefly reporter light, replicate 2 = 7.65e5; Renilla control light, replicate 1 = 3.04e5; Renilla control light, replicate 2 = 3.26e5; outcome = inactive
CG43075 [DRSC19074]: firefly reporter light, replicate 1 = 3863; Renilla control light, replicate 1 = 1586; outcome = inactive
lncRNA:CR31647 [DRSC21903]: firefly reporter light, replicate 1 = 3.24e5; firefly reporter light, replicate 2 = 3.85e5; Renilla control light, replicate 1 = 1.50e5; Renilla control light, replicate 2 = 1.76e5; outcome = inactive
fau [DRSC12816]: firefly reporter light, replicate 1 = 3603; Renilla control light, replicate 1 = 1320; outcome = inactive
fau [DRSC12817]: firefly reporter light, replicate 1 = 3031; Renilla control light, replicate 1 = 1613; outcome = inactive
fau [DRSC16943]: firefly reporter light, replicate 1 = 6403; Renilla control light, replicate 1 = 3126; outcome = inactive
fau [DRSC16944]: firefly reporter light, replicate 1 = 13616; Renilla control light, replicate 1 = 3718; outcome = inactive
fau [DRSC16945]: firefly reporter light, replicate 1 = 18647; Renilla control light, replicate 1 = 5206; outcome = inactive
fau [DRSC22360]: firefly reporter light, replicate 1 = 6.89e5; firefly reporter light, replicate 2 = 6.81e5; Renilla control light, replicate 1 = 2.37e5; Renilla control light, replicate 2 = 2.05e5; outcome = inactive
CG5500 [DRSC15820]: firefly reporter light, replicate 1 = 9073; Renilla control light, replicate 1 = 3543; outcome = inactive
Sqor [DRSC08453]: firefly reporter light, replicate 1 = 4441; Renilla control light, replicate 1 = 2101; outcome = inactive
Lsm12a [DRSC19702]: firefly reporter light, replicate 1 = 23632; Renilla control light, replicate 1 = 14829; outcome = inactive
Su(dx) [DRSC00791]: firefly reporter light, replicate 1 = 14281; Renilla control light, replicate 1 = 4339; outcome = inactive
Obp50b + Obp50c [DRSC21818]: firefly reporter light, replicate 1 = 8.35e5; firefly reporter light, replicate 2 = 7.29e5; Renilla control light, replicate 1 = 3.70e5; Renilla control light, replicate 2 = 3.30e5; outcome = inactive
CG32219 [DRSC09641]: firefly reporter light, replicate 1 = 3866; Renilla control light, replicate 1 = 1435; outcome = inactive
CG17612 [DRSC00505]: firefly reporter light, replicate 1 = 12716; Renilla control light, replicate 1 = 4969; outcome = inactive
Gel [DRSC12350]: firefly reporter light, replicate 1 = 5729; Renilla control light, replicate 1 = 2656; outcome = inactive
CtsL2 [DRSC06978]: firefly reporter light, replicate 1 = 10592; Renilla control light, replicate 1 = 3392; outcome = inactive
CG34133 [DRSC16319]: firefly reporter light, replicate 1 = 1429; firefly reporter light, replicate 2 = 4295; Renilla control light, replicate 1 = 790; Renilla control light, replicate 2 = 2012; outcome = inactive
CG34133 [DRSC22239]: firefly reporter light, replicate 1 = 8.66e5; firefly reporter light, replicate 2 = 8.63e5; Renilla control light, replicate 1 = 4.00e5; Renilla control light, replicate 2 = 3.67e5; outcome = inactive
ssp [DRSC10252]: firefly reporter light, replicate 1 = 8643; Renilla control light, replicate 1 = 1378; outcome = inactive
